Test results reported in the supplement of paper PMC4604168 (melanoma cell lines).
The other results are listed elsewhere or left out. Many values rest on one well or one pass, so single values are uncertain.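 Cells were imaged in 1,536-well plates, and nuclei stained with an antibody against cleaved PARP were counted against all DNA-stained nuclei to give the apoptosis fraction. Screening doses were chosen to leave most cells alive, and resting and induced cleaved-PARP levels differ strongly between cell lines.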

Assays:
Test in all cases: cleaved PARP positive nuclei fraction relative to DMSO control; melanoma cells; higher = more apoptosis
Settings in all cases: library dose: low library concentration; 72 h
MZ2-MEL = system: MZ2-MEL
MeWo = system: MeWo
RPMI7951 = system: RPMI7951
RVH-421 = system: RVH-421
SkMel28 = system: SkMel28
SkMel2 = system: SkMel2
SkMel30 = system: SkMel30
UACC62 = system: UACC62
WM115 = system: WM115
WM1716 = system: WM1716
WM1745 = system: WM1745
WM3526 = system: WM3526
WM3619 = system: WM3619
WM451Lu = system: WM451Lu

Structure (SMILES) | cleaved PARP positive nuclei fraction (MZ2-MEL) [%] | cleaved PARP positive nuclei fraction (MeWo) [%] | cleaved PARP positive nuclei fraction (RPMI7951) [%] | cleaved PARP positive nuclei fraction (RVH-421) [%] | cleaved PARP positive nuclei fraction (SkMel28) [%] | cleaved PARP positive nuclei fraction (SkMel2) [%] | cleaved PARP positive nuclei fraction (SkMel30) [%] | cleaved PARP positive nuclei fraction (UACC62) [%] | cleaved PARP positive nuclei fraction (WM115) [%] | cleaved PARP positive nuclei fraction (WM1716) [%] | cleaved PARP positive nuclei fraction (WM1745) [%] | cleaved PARP positive nuclei fraction (WM3526) [%] | cleaved PARP positive nuclei fraction (WM3619) [%] | cleaved PARP positive nuclei fraction (WM451Lu) [%]
O=C(/C=C/c1cccnc1)NCCCCC1CCN(C(=O)c2ccccc2)CC1 + CN(c1ncccc1CNc1nc(Nc2ccc3c(c2)CC(=O)N3)ncc1C(F)(F)F)S(C)(=O)=O [PF562271] (first compound 0.01 µM, partner dose 0.08 µM) | 884 | 152 | 78.8 | 194 | 129 | 1410 | 26.8 | 208 | 122 | 51.8 | 104 | 46.5 | 130 | 102
Cc1cn(-c2cc(NC(=O)c3ccc(C)c(Nc4nccc(-c5cccnc5)n4)c3)cc(C(F)(F)F)c2)cn1 [nilotinib] + COCC[n+]1c2c(n(Cc3cnccn3)c1C)C(=O)c1ccccc1C2=O [YM155] (first compound 0.2 µM, partner dose 0.0004 µM) | 115 | 29.7 | 261 | 121 | 152 | 180 | 314 | 23.6 | 55 | 69 | 94.2 | 19.6 | 87.4 | 72.4
COc1cc([C@@H]2c3cc4c(cc3[C@@H](O[C@@H]3O[C@@H]5CO[C@@H](C)O[C@H]5[C@H](O)[C@H]3O)[C@H]3COC(=O)[C@H]23)OCO4)cc(OC)c1O [etoposide] + Cc1cc(Nc2cc(N3CCN(C)CC3)nc(/C=C/c3ccccc3)n2)n[nH]1 [ENMD2076] (first compound 0.02 µM, partner dose 0.04 µM) | 32.8 | 96.4 | 62.2 | 165 | 89.1 | 97.2 | 25.1 | 86.1 | 52.2 | 38.6 | 82.6 | 106 | 104 | 98.6
COc1cc([C@@H]2c3cc4c(cc3[C@@H](O[C@@H]3O[C@@H]5CO[C@@H](C)O[C@H]5[C@H](O)[C@H]3O)[C@H]3COC(=O)[C@H]23)OCO4)cc(OC)c1O [etoposide] + CS(=O)(=O)c1ccc(C(=O)Nc2ccc(Cl)c(-c3ccccn3)c2)c(Cl)c1 [vismodegib] (first compound 0.02 µM, partner dose 1 µM) | 71 | 133 | 120 | 37.2 | 77.1 | 161 | 71.8 | 279 | 121 | 72.6 | 76.9 | 47 | 79.2 | 199
Cc1cn(-c2cc(NC(=O)c3ccc(C)c(Nc4nccc(-c5cccnc5)n4)c3)cc(C(F)(F)F)c2)cn1 [nilotinib] + CN1CCN(c2ccc3nc(-c4c(N)c5c(F)cccc5[nH]c4=O)[nH]c3c2)CC1 [Dovitinib] (first compound 0.2 µM, partner dose 0.1 µM) | 51.8 | 37.6 | 88.4 | 92.7 | 40.7 | 73.4 | 119 | 37 | 41.5 | 25.3 | 38.6 | 19.8 | 81.9 | 37.3
Cc1cc(Nc2cc(N3CCN(C)CC3)nc(Sc3ccc(NC(=O)C4CC4)cc3)n2)n[nH]1 [Tozasertib] + OCc1c[nH]c2ccccc12 [Indole-3-carbinol] (first compound 0.006 µM, partner dose 0.8 µM) | 46.7 | 68.9 | 45 | 57.1 | 57.9 | 37.3 | 38.8 | 137 | 107 | 98.1 | 105 | 37.1 | 106 | 91.2
O=c1[nH]nc(Sc2ncc([N+](=O)[O-])s2)n1-c1ccc2c(c1)OCCO2 + Cn1c(Nc2ccc(C(F)(F)F)cc2)nc2cc(Oc3ccnc(-c4ncc(C(F)(F)F)[nH]4)c3)ccc21 [CHIR265] (first compound 0.2 µM, partner dose 0.08 µM) | 79 | 169 | 207 | 433 | 192 | 116 | 198 | 194 | 332 | 37.9 | 128 | 160 | 98 | 47.5
CCCCCCCCCCCCCCCCCCOP(=O)([O-])OC1CC[N+](C)(C)CC1 [Perifosine] + NC1(c2ccc(-c3nc4ccn5c(=O)[nH]nc5c4cc3-c3ccccc3)cc2)CCC1 [MK2206] (first compound 0.4 µM, partner dose 0.4 µM) | 142 | 87.2 | 56.8 | 30.1 | 115 | 56.8 | 49.5 | 92.9 | 227 | 80.6 | 125 | 29.7 | 98.7 | 50.8
Cc1cc(Nc2cc(N3CCN(C)CC3)nc(Sc3ccc(NC(=O)C4CC4)cc3)n2)n[nH]1 [Tozasertib] + CC(C)C[C@H](NC(=O)[C@H](Cc1ccccc1)NC(=O)c1cnccn1)B(O)O [Bortezomib] (first compound 0.006 µM, partner dose 0.001 µM) | 87 | 113 | 153 | 124 | 75.5 | 59.2 | 58.1 | 315 | 128 | 102 | 118 | 189 | 189 | 94.9
Cc1ccc(Nc2nccc(N(C)c3ccc4c(C)n(C)nc4c3)n2)cc1S(N)(=O)=O [Pazopanib] + CCCCCCCCc1ccc(CCC(N)(CO)CO)cc1 [fingolimod] (first compound 0.4 µM, partner dose 2 µM) | 55.9 | 78.9 | 169 | 193 | 83.2 | 113 | 108 | 97.1 | 35.5 | 193 | 97.6 | 91.3 | 108 | 66.5
O=C(Nc1cc(C(F)(F)F)cc(C(F)(F)F)c1)c1cc(Cl)ccc1O + Cn1nnc2c(C(N)=O)ncn2c1=O [temozolomide] (first compound 0.016 µM, partner dose 2 µM) | 88.2 | 98.1 | 57.3 | 57.6 | 87.5 | 43.9 | 117 | 133 | 178 | 90.9 | 108 | 85.1 | 91.6 | 96.9
CCCCCCCCCCCCCCCCCCOP(=O)([O-])OC1CC[N+](C)(C)CC1 [Perifosine] + Cn1cnc2c(F)c(Nc3ccc(Br)cc3Cl)c(C(=O)NOCCO)cc21 [selumetinib] (first compound 0.4 µM, partner dose 0.015 µM) | 135 | 167 | 115 | 47.7 | 42.1 | 120 | 161 | 20.6 | 109 | 198 | 94.2 | 46.3 | 101 | 25.5
COc1cc([C@@H]2c3cc4c(cc3[C@@H](O[C@@H]3O[C@@H]5CO[C@@H](C)O[C@H]5[C@H](O)[C@H]3O)[C@H]3COC(=O)[C@H]23)OCO4)cc(OC)c1O [etoposide] + O=C(O)c1ccc2c(c1)nc(Nc1cccc(Cl)c1)c1ccncc12 [CX4945] (first compound 0.02 µM, partner dose 0.4 µM) | 77.9 | 36 | 45.7 | 70.1 | 83.3 | 75.2 | 165 | 70.2 | 33.3 | 141 | 94.1 | 58.8 | 110 | 129
CCCCCCCCCCCCCCCCCCOP(=O)([O-])OC1CC[N+](C)(C)CC1 [Perifosine] + O=C(/C=C/c1cccnc1)NCCCCC1CCN(C(=O)c2ccccc2)CC1 [FK866] (first compound 0.4 µM, partner dose 0.01 µM) | 416 | 164 | 67.3 | 50.4 | 162 | 1250 | 21.8 | 268 | 134 | 153 | 91.4 | 55.1 | 108 | 164
O=C(/C=C/c1cccnc1)NCCCCC1CCN(C(=O)c2ccccc2)CC1 + Cn1c(=O)n(-c2ccc(C(C)(C)C#N)cc2)c2c3cc(-c4cnc5ccccc5c4)ccc3ncc21 [NVP-BEZ235] (first compound 0.01 µM, partner dose 0.004 µM) | 905 | 40.2 | 62.2 | 296 | 357 | 1060 | 219 | 35.1 | 69.5 | 21.3 | 109 | 36.8 | 96.4 | 89.6
O=c1[nH]nc(Sc2ncc([N+](=O)[O-])s2)n1-c1ccc2c(c1)OCCO2 + Nc1ncn([C@H]2C[C@H](O)[C@@H](CO)O2)c(=O)n1 [decitabine] (first compound 0.2 µM, partner dose 0.1 µM) | 119 | 91.7 | 53.4 | 217 | 43.6 | 61.2 | 26.9 | 50 | 202 | 39.5 | 97 | 73.7 | 191 | 45.1
COc1cc([C@@H]2c3cc4c(cc3[C@@H](O[C@@H]3O[C@@H]5CO[C@@H](C)O[C@H]5[C@H](O)[C@H]3O)[C@H]3COC(=O)[C@H]23)OCO4)cc(OC)c1O [etoposide] + CN1CCN(c2ccc3nc(-c4c(N)c5c(F)cccc5[nH]c4=O)[nH]c3c2)CC1 [Dovitinib] (first compound 0.02 µM, partner dose 0.1 µM) | 36.4 | 131 | 201 | 49.4 | 86.1 | 131 | 17.7 | 166 | 171 | 54.8 | 104 | 20.2 | 102 | 113
N#CC[C@H](C1CCCC1)n1cc(-c2ncnc3[nH]ccc23)cn1 [ruxolitinib] + CCCCCCCCCCCCCCCCCCOP(=O)([O-])OC1CC[N+](C)(C)CC1 [Perifosine] (first compound 1 µM, partner dose 0.4 µM) | 86.8 | 76.4 | 127 | 159 | 70.4 | 67.7 | 76.9 | 17.7 | 48.1 | 18 | 82.8 | 69.2 | 93.3 | 191
O=C(Nc1cc(C(F)(F)F)cc(C(F)(F)F)c1)c1cc(Cl)ccc1O + Cc1nc(Nc2ncc(C(=O)Nc3c(C)cccc3Cl)s2)cc(N2CCN(CCO)CC2)n1 [dasatanib] (first compound 0.016 µM, partner dose 0.004 µM) | 96.5 | 130 | 98.6 | 226 | 121 | 62.5 | 68 | 237 | 85.7 | 106 | 145 | 33 | 99.1 | 20.8

Only cleaved PARP positive nuclei fraction (WM3526) [%] (two entries from above):
Structure (SMILES)	cleaved PARP positive nuclei fraction (WM3526) [%]
CCCCCCCCCCCCCCCCCCOP(=O)([O-])OC1CC[N+](C)(C)CC1 [Perifosine] + Cn1cnc2c(F)c(Nc3ccc(Br)cc3Cl)c(C(=O)NOCCO)cc21 [selumetinib] (first compound 0.4 µM, partner dose 0.015 µM)	46.3
COc1cc([C@@H]2c3cc4c(cc3[C@@H](O[C@@H]3O[C@@H]5CO[C@@H](C)O[C@H]5[C@H](O)[C@H]3O)[C@H]3COC(=O)[C@H]23)OCO4)cc(OC)c1O [etoposide] + O=C(O)c1ccc2c(c1)nc(Nc1cccc(Cl)c1)c1ccncc12 [CX4945] (first compound 0.02 µM, partner dose 0.4 µM)	58.8
